Assay results: PubChem BioAssay AID587 (National Center for Advancing Translational Sciences (NCATS), 2007)
Among all 59,000 compounds or so, about 35 (0.06%) were called active. The inconclusive results got no clear call from the source; some entries with a clear call stand among them for comparison. Cut-off read from the data, not from the text of the source: active = max dye-equivalent concentration above about 10 nM; inconclusive = between about 1.1 nM and that limit; inactive = weaker than that.

Experiment: qHTS Assay for Spectroscopic Profiling in Texas Red Spectral Region
Conditions: Compound fluorescence, Texas Red channel, 547/618 nm; active compounds read high
Outline: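 Texas Red-region profiling: compounds in 100 mM Tris pH 8.0 were read at 547/618 nm after 15 min at room temperature. Intensities were normalized against a six-point Texas Red standard series to give dye-equivalent concentration.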

SMILES | max dye-equivalent concentration
Cc1cc(C)n(-c2ccn(Cc3ccc(Cl)cc3Cl)c(=O)n2)n1 | inconclusive: 1.1 nM
C=CCn1c(SCCN2CCOCC2)nc2c1c(=O)[nH]c(=O)n2C | inconclusive: 1.8 nM
CC1N(C)c2cc(NC(=O)c3ccco3)ccc2C1(C)C (stereo not drawn) | inconclusive: 6.6 nM
Cc1cc(C)nc(SCc2nnc(SCC(=O)N3CCCc4ccccc43)n2C)n1 | inconclusive: 1.1 nM
NC(=O)c1c(NC(NC(=O)c2ccco2)(C(F)(F)F)C(F)(F)F)sc2c1CCCC2 | inconclusive: 1.1 nM
C[C@]12C=CC(=O)C=C1CC[C@@H]1[C@H]3C[C@@H](O)[C@](O)(C(=O)CO)[C@]3(C)C[C@H](O)[C@]12F | inactive
O=C(O)CCCC[C@H]1CCSS1 | inconclusive: 1.2 nM
CN(C)S(=O)(=O)c1cccc(C(=O)N(Cc2ccc(F)cc2)Cc2ccco2)c1 | inconclusive: 1.2 nM
CCCN1C(=O)NC2(O)C(=O)c3ccccc3C12O (stereo not drawn) | inconclusive: 1.2 nM
CCOCCn1c(N(C)Cc2ccccc2)nc2c1c(=O)[nH]c(=O)n2C | inconclusive: 1.1 nM
CC(C)(C)c1ccc(S(=O)(=O)N2CCCC2C(=O)NC2=NCCS2)cc1 (stereo not drawn) | inconclusive: 3.8 nM
CCc1ccc2[nH]c(=O)c(CN(CCO)C(=O)NCc3ccccc3)cc2c1 | inconclusive: 1.8 nM
O=C(O)/C=C\C=C/c1ccc2c(c1)OCO2 | inactive
O=C(CN1CCOCC1)N1CCN(C(=O)CN2CCOCC2)CC1 | inactive
CCCOC(=O)Cc1n[nH]c(=O)[nH]c1=O | inconclusive: 1.1 nM
N#Cc1nc(-c2ccc(OCc3ccccc3Cl)cc2)oc1NCCCn1ccnc1 | inconclusive: 1.3 nM
CCOC(=O)N1CCN(CC(=O)Nc2c(C(=O)OC)[nH]c3cccc(Cl)c23)CC1 | inconclusive: 1.1 nM
Cc1nc2ccc(S(=O)(=O)NCC(=O)N3CCC(N4CCCCC4)CC3)cc2s1 | inconclusive: 1.2 nM
CC(C)(C)C(=O)[C@H]([C@@H](c1ccccc1)N1CCOCC1)N1CCOCC1 | inactive
NC(=O)c1cc(N)ccc1N1CCCC1 | inconclusive: 7.2 nM
Cc1cccc2cc(CN(CCCO)C(=O)Nc3ccccc3Cl)c(=O)[nH]c12 | inconclusive: 1.1 nM
COc1ccc(CC(=O)OCn2nnc3ccccc3c2=O)cc1 | inconclusive: 2 nM

SMILES | max dye-equivalent concentration
COc1ccc2cc(C(c3nnnn3CCc3ccccc3)N3CCC(O)CC3)c(=O)[nH]c2c1 (stereo not drawn) | active: 41 nM
CCOC(=O)C1CCN(C(=O)CCn2c(=O)[nH]c3ccccc3c2=O)CC1 | inconclusive: 1.3 nM
CC1(C)Oc2ccc(C(=O)N3CCc4ccccc43)cc2N(CC(=O)N2CCCC2)C1=O | inconclusive: 3.2 nM
CN1C[C@@H](O)[C@@H](O)[C@@H](O)[C@@H]1CO | inactive
c1cncc(-c2nnc(SCc3nc4ccccc4[nH]3)o2)c1 | inconclusive: 1.1 nM
COc1ccc(S(=O)(=O)N(C)CC(=O)NC2CC2)cc1 | inconclusive: 1.5 nM
CC(C)(C)C1CCC2(CC1)C(C#N)=C(SCC(=O)NC1CCCCC1)NC(=O)C2C#N (stereo not drawn) | inconclusive: 1.7 nM
Cn1c(=O)c(CCc2ccccc2)nc2cnc(Nc3ccccc3)nc21 | inactive
CCOc1ccc(N2C(=O)NC(Cc3c[nH]c4ccccc34)C2=O)cc1 (stereo not drawn) | inactive
Cc1c(C2Nc3ccccc3NC3=C2C(=O)CC(C)(C)C3)cnn1C (stereo not drawn) | inactive
Cc1ccc2c(c1)c1c3n2CCN(C(=O)CN2CCN(C)CC2)C3CCC1 (stereo not drawn) | inconclusive: 1.3 nM
COC(=O)[C@H](CCSC)NC(=O)Nc1cc(C)ccc1C | inconclusive: 1.1 nM
O=C(Nc1ccccc1)N1CC=C(c2ccc(F)cc2)CC1 | inactive
CC1=CC(C#N)(C#N)C(C#N)(C#N)C(c2ccccc2)N1 (stereo not drawn) | active: 34 nM
CN1CCN(C(=O)c2sc(=S)n(-c3ccccc3)c2N)CC1 | inconclusive: 2 nM
CCC1(c2ccccc2)C(=O)NCNC1=O | inactive
CCCCCCn1cc(C(=O)O)c(=O)c2ccccc21 | inconclusive: 1.1 nM
CC(=O)N1CCc2cc(S(=O)(=O)NCCC(=O)NC3CCN(Cc4ccccc4)CC3)ccc21 | inconclusive: 1.6 nM
CCOC(=O)C1CCCN(CC(=O)Nc2c(C(=O)OC)[nH]c3ccccc23)C1 (stereo not drawn) | inconclusive: 2.2 nM
Cc1cccc(NC(=O)C2c3ccccc3C(=O)N3CCc4ccccc4C23)n1 (stereo not drawn) | inconclusive: 1.4 nM
N=c1c(C(=O)NCc2ccc3c(c2)OCO3)cc2c(=O)n3ccccc3nc2n1Cc1cccnc1 | inactive
O=C(Cn1cnc2c(oc3ccccc32)c1=O)NCCc1ccccc1 | inconclusive: 1.8 nM

A draw from above in order of molecular weight, ascending:
SMILES | max dye-equivalent concentration
CCCOC(=O)Cc1n[nH]c(=O)[nH]c1=O | inconclusive: 1.1 nM
CCCN1C(=O)NC2(O)C(=O)c3ccccc3C12O (stereo not drawn) | inconclusive: 1.2 nM
CCOC(=O)C1CCN(C(=O)CCn2c(=O)[nH]c3ccccc3c2=O)CC1 | inconclusive: 1.3 nM

Following part:

SMILES | max dye-equivalent concentration
CCOc1ccc(C2C(C#N)=C(N)SC(N)=C2C#N)cc1OCC | inactive
O=C(CSc1nnc(-c2ccccc2)o1)n1c2c(c3ccccc31)CCCC2 | inconclusive: 1.2 nM
COc1ccc(-c2c(C)oc3c(CN4CCN(CCO)CC4)c(O)ccc3c2=O)cc1OC | inconclusive: 1.1 nM
CCCn1c(=O)c2ccccc2n2c(SCCOc3ccccc3)nnc12 | inconclusive: 1.2 nM
CCN(CC)[C@@H](C)CN1c2ccccc2Sc2ccccc21 | inactive
C=CCn1c(NCc2ccc(N(C)C)cc2)nc2ccccc21 | inconclusive: 1.6 nM
Cc1cc(C)nc(-n2nc(C)cc2NC(=O)c2ccc(Br)o2)n1 | inconclusive: 2.1 nM
COC(=O)c1sc(NC(=O)CSc2nnnn2-c2ccc(C)cc2C)nc1C | inconclusive: 1.2 nM
O=C(NCc1ccccc1)N(Cc1nc2ccccc2c(=O)[nH]1)C1CCCC1 | inconclusive: 1.2 nM
CC(=O)[C@@H]1[C@H]2[C@@H](C(=O)[C@H]3OC[C@H]2O3)[C@@H]2C=Cc3ccccc3N12 | inconclusive: 1.4 nM
COC(=O)c1ccc(Cn2cnc3c(cnn3-c3ccc(F)cc3)c2=O)o1 | inconclusive: 2.2 nM
COc1ccc(C2C=C(c3ccc(Br)cc3)Nc3nc(N4C(=O)CCC4=O)nn32)cc1 (stereo not drawn) | inactive
Cc1ccc(NC2c3ncccc3C(=O)N2Cc2ccc(F)cc2)cc1 (stereo not drawn) | inconclusive: 1.6 nM
COc1cc([C@@H]2c3cc4c(cc3[C@@H](O[C@@H]3O[C@H]5CO[C@@H](C)O[C@@H]5[C@@H](O)[C@H]3O)[C@@H]3COC(=O)[C@@H]23)OCO4)cc(OC)c1O | inactive
COc1cccc2cc(C(=O)N3CCc4ccccc43)c(=O)oc12 | inactive
CN(c1ccccc1)C(c1ccc(F)cc1)c1nnnn1CC1CCCO1 (stereo not drawn) | inconclusive: 1.2 nM
CC1(C)Cc2nc3oc4c(=S)nc[nH]c4c3cc2CO1 | inconclusive: 1.2 nM
Nc1sccc1C(=O)c1ccccc1 | inconclusive: 1.1 nM
O=C(O)c1cnn2c1NC(c1ccc(F)cc1)CC2C(F)(F)F (stereo not drawn) | inconclusive: 1.2 nM
Cc1cccc(N(CC(=O)NC2CCCCC2)C(=O)CCC(=O)Nc2ccccn2)c1 | inconclusive: 1.8 nM
O=C(O)C1C(c2ccccc2)C(C(=O)OCCCO)C1c1ccccc1 (stereo not drawn) | inconclusive: 1.2 nM
COc1ccc(CCNC(=O)Cn2cnc3c(nnn3Cc3ccccc3F)c2=O)cc1OC | inconclusive: 1.8 nM

SMILES | max dye-equivalent concentration
COC(=O)c1cc(OC)c(OC)cc1NC(=O)CC1CCCCC1 | inconclusive: 1.4 nM
Cc1ccc(C)c(C(=O)CSc2nnnn2-c2cccnc2)c1 | inconclusive: 1.3 nM
COc1cc(C2c3c(oc4ccccc4c3=O)C(=O)N2CCN2CCOCC2)cc(OC)c1OC (stereo not drawn) | inconclusive: 1.3 nM
CCOC(=O)C1CCCN(c2nc3ccccc3nc2C(C#N)C(=O)OCC)C1 (stereo not drawn) | inactive
CCOc1ncccc1C(=O)OCc1cn2cc(Cl)ccc2n1 | inconclusive: 1.7 nM
COc1cccc(C(=O)CN2CCC(NC(=O)NC3CCCCC3)CC2)c1 | inconclusive: 1.4 nM
C[C@@H](CNC(N)=O)NC(N)=O | inactive
COc1ccc(CNC(=O)C(C#N)c2nc3ccccc3nc2N2CCCC2)cc1 (stereo not drawn) | inactive
CC1(C)CC(=O)C=C(NCc2ccco2)C1 | inconclusive: 1.5 nM
O=C(O)CCc1ccc(-c2ccccc2)n1-c1cccc(O)c1 | inactive
CC1(C)CC(=O)C(C2(O)C(=O)N(Cc3ccccc3)c3ccccc32)CO1 (stereo not drawn) | inconclusive: 1.2 nM
C=CCc1ccccc1OCC(O)CN1CCN(c2ccc(C)cc2)CC1 (stereo not drawn) | inconclusive: 2.3 nM
COc1cccc(-c2nc(-c3ccc(NC(=O)c4cccnc4)cc3)no2)c1 | inconclusive: 1.3 nM
COc1ccc(N2CC(O)=C(c3nc4ccccc4s3)C2=N)cc1 | inconclusive: 1.2 nM
Cc1cc(=O)[nH]c(N2CCN(Cc3ccccc3)CC2)n1 | inconclusive: 2.3 nM
Cc1cnc(CNc2cc(-c3c(C)noc3C)ncn2)cn1 | inactive
CCN(CC)CCOC(=O)c1cccc(OC)c1 | inconclusive: 2.1 nM
CC1(C)[C@@H]2CC[C@]1(CC(=O)O)[C@H](Cl)C2 | inactive
O=C(C1CCCO1)N1CCc2ccccc21 (stereo not drawn) | inconclusive: 1.6 nM
O=C(O)c1c(F)c(F)cc2ccccc12 | inconclusive: 1.6 nM
Cc1nc(NCc2ccccn2)c2ccccc2n1 | inconclusive: 1.2 nM
COc1ccc(CN2C(=O)NC3(CCCCCC3)C2=O)cc1F | inconclusive: 1.2 nM
